# PubChem BioAssay AID504793, Drosophila RNAi Screening Center, 2011
# Purpose: 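Genes required for cells to halt at G2/M after double-strand DNA breaks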 (primary screen)
# Cells: Drosophila S2R+ cells
# Knock-down reagent: long dsRNA against Drosophila genes, about 0.25 µg dsRNA per well
# Time to read-out: 4 days of dsRNA, then 4 hours of drug before read-out
# Challenge: doxorubicin 0.5 µM for 4 hours to cause double-strand breaks, in cells also given a low, harmless dose of dsRNA against nbs to sensitise the assay
# Measured: 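Mitotic index as the number of phospho-histone H3-positive cells in each well following doxorubicin, given as raw counts without normalisation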
# Direction: mitotic cells: higher = more cells in mitosis, weaker G2 arrest
# Rule for the call: 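a call needs confirmation in secondary tests, with other dsRNAs and a check of mitotic timing without damage, not just a high primary count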
# Meaning of the calls: active = confirmed in follow-up tests; inactive = not confirmed
# In all, the deposit lists about 23,000 reagents; this is a random part of those that have a named target and a result. In the full data, 62 (0.27%) got an active call. 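Calls come from follow-up tests whose scores are not deposited, so confirmed genes may have low counts here; counts are not normalised per plate.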 Raw values vary from plate to plate and are shown uncorrected. Names joined by + are all predicted targets of the reagent. No sequences are given here.
gene knocked down,dsRNA,"mitotic cells, replicate 1",outcome
VhaM9.7-a,DRSC08289,6,inactive
VhaM9.7-a,DRSC28340,4,inactive
CG12206,DRSC24963,11,inactive
CG15021,DRSC08475,10,inactive
CG15021,DRSC25139,15,inactive
mmy,DRSC02002,10,inactive
naz,DRSC14790,12,inactive
naz,DRSC16199,5,inactive
mtt,DRSC05106,7,inactive
mtt,DRSC05107,8,inactive
mtt,DRSC06753,6,inactive
mtt,DRSC07235,5,inactive
Ube4A,DRSC02004,4,inactive
enc,DRSC08716,6,inactive
enc,DRSC27545,7,inactive
Gr23a,DRSC27488,4,inactive
Ptp4E,DRSC18701,10,inactive
CG14005,DRSC02337,5,inactive
RpS3A,DRSC17168,11,inactive
kipf,DRSC15446,12,inactive
kipf,DRSC22871,5,inactive
kipf,DRSC29690,5,inactive
CG7044,DRSC16180,8,inactive
CG4751,DRSC02776,9,inactive
Hsp60D,DRSC02543,8,inactive
Hsp60D,DRSC29118,8,inactive
LRR,DRSC06444,4,inactive
LRR,DRSC24790,9,inactive
Daxx,DRSC03255,4,inactive
Daxx,DRSC29680,5,inactive
CG9903,DRSC20213,10,inactive
CG12236,DRSC17831,9,inactive
CG12236,DRSC25773,7,inactive
CG14088,DRSC10092,7,inactive
ND-B14.5AL,DRSC11795,6,inactive
ND-B14.5AL,DRSC28992,3,inactive
CG7548,DRSC10874,5,inactive
CG7548,DRSC29043,3,inactive
Rab5,DRSC00777,12,inactive
Rab5,DRSC23710,9,inactive
robl62A,DRSC08153,2,inactive
brv2,DRSC10226,5,inactive
brv2,DRSC29796,7,inactive
Prosbeta2,DRSC11257,64,inactive
CG8507,DRSC16435,1,inactive
EloB,DRSC16663,8,inactive
vir-1,DRSC02501,6,inactive
vir-1,DRSC02863,3,inactive
vir-1,DRSC25208,5,inactive
Reps,DRSC02940,2,inactive
Ankle2,DRSC20105,10,inactive
Ankle2,DRSC20106,6,inactive
lky,DRSC20682,5,inactive
lky,DRSC27161,3,inactive
sov,DRSC17930,5,inactive
sov,DRSC24302,1,inactive
CG30184,DRSC22277,9,inactive
CG30184,DRSC29631,3,inactive
CG12784,DRSC14539,4,inactive
Proc,DRSC22998,9,inactive
para,DRSC20360,12,inactive
Sec3,DRSC10384,5,inactive
CG1239,DRSC12204,4,inactive
CG1239,DRSC27944,1,inactive
Abp1,DRSC09693,4,inactive
Cpn,DRSC16613,6,inactive
Cpn,DRSC23835,4,inactive
TpnC47D,DRSC07564,5,inactive
CG11123,DRSC06040,16,inactive
CG11123,DRSC28420,4,inactive

Next part, starting with the last 14 of the part before.
gene knocked down,dsRNA,"mitotic cells, replicate 1",outcome
CG30184,DRSC22277,9,inactive
CG30184,DRSC29631,3,inactive
CG12784,DRSC14539,4,inactive
Proc,DRSC22998,9,inactive
para,DRSC20360,12,inactive
Sec3,DRSC10384,5,inactive
CG1239,DRSC12204,4,inactive
CG1239,DRSC27944,1,inactive
Abp1,DRSC09693,4,inactive
Cpn,DRSC16613,6,inactive
Cpn,DRSC23835,4,inactive
TpnC47D,DRSC07564,5,inactive
CG11123,DRSC06040,16,inactive
CG11123,DRSC28420,4,inactive
cGlr1,DRSC06270,3,inactive
CG8939,DRSC20127,5,inactive
Rbp6,DRSC10072,2,inactive
Rbp6,DRSC10073,4,inactive
CG14764,DRSC05072,4,inactive
CG14764,DRSC06498,9,inactive
CG14764,DRSC06844,3,inactive
U2A,DRSC06445,7,inactive
U2A,DRSC28070,9,inactive
CG8141,DRSC16387,6,inactive
Rsbp15,DRSC14176,6,inactive
Rsbp15,DRSC29051,7,inactive
CG5886,DRSC15908,6,inactive
bs,DRSC23068,11,inactive
bs,DRSC25943,7,inactive
Kah,DRSC07887,3,inactive
Kah,DRSC08515,7,inactive
Kah,DRSC25608,10,inactive
Kdsr,DRSC14245,14,inactive
Alg2,DRSC08298,11,inactive
CG6962,DRSC16153,5,inactive
CG6962,DRSC28894,4,inactive
CG5577,DRSC10519,3,inactive
Sas-6,DRSC15061,24,inactive
CG10713,DRSC09786,5,inactive
CG10713,DRSC24532,6,inactive
CG8841,DRSC07286,4,inactive
CG14020,DRSC02350,1,inactive
CG1951,DRSC15403,6,inactive
Hs3st-B,DRSC20067,7,inactive
tkv,DRSC03623,8,inactive
tkv,DRSC22606,8,inactive
tkv,DRSC25957,5,inactive
CG15445,DRSC20517,6,inactive
CG9029,DRSC03129,6,inactive
scpr-C + scpr-B + scpr-A,DRSC26639,4,inactive
Uhg1,DRSC26214,,inactive
Sema1b,DRSC07550,5,inactive
Sema1b,DRSC27552,11,inactive
Rh4 + sina,DRSC11396,3,inactive
